Assay results reported in the supplement of paper PMC4604168 (melanoma cell lines).
This is one part of the list. Repeats are few or missing, and single values can be far off.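 Imaging used 1,536-well plates; nuclei positive for cleaved PARP by antibody were divided by total DNA-stained nuclei to yield the apoptosis fraction. Doses for screening kept most cells viable, and cell lines differ markedly in resting and induced cleaved-PARP levels.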

How the values were obtained:
Assay in all cases: cleaved PARP positive nuclei fraction relative to DMSO control; melanoma cells; higher = more apoptosis
Details in all cases: library dose: low library concentration; 72 h
MZ2-MEL = tested on: MZ2-MEL
MeWo = tested on: MeWo
RPMI7951 = tested on: RPMI7951
RVH-421 = tested on: RVH-421
SkMel28 = tested on: SkMel28
SkMel2 = tested on: SkMel2
SkMel30 = tested on: SkMel30
UACC62 = tested on: UACC62
WM115 = tested on: WM115
WM1716 = tested on: WM1716
WM1745 = tested on: WM1745
WM3526 = tested on: WM3526
WM3619 = tested on: WM3619
WM451Lu = tested on: WM451Lu

Row | Compound | cleaved PARP positive nuclei fraction (MZ2-MEL) [%] | cleaved PARP positive nuclei fraction (MeWo) [%] | cleaved PARP positive nuclei fraction (RPMI7951) [%] | cleaved PARP positive nuclei fraction (RVH-421) [%] | cleaved PARP positive nuclei fraction (SkMel28) [%] | cleaved PARP positive nuclei fraction (SkMel2) [%] | cleaved PARP positive nuclei fraction (SkMel30) [%] | cleaved PARP positive nuclei fraction (UACC62) [%] | cleaved PARP positive nuclei fraction (WM115) [%] | cleaved PARP positive nuclei fraction (WM1716) [%] | cleaved PARP positive nuclei fraction (WM1745) [%] | cleaved PARP positive nuclei fraction (WM3526) [%] | cleaved PARP positive nuclei fraction (WM3619) [%] | cleaved PARP positive nuclei fraction (WM451Lu) [%]
1 | Cc1cc(Nc2cc(N3CCN(C)CC3)nc(Sc3ccc(NC(=O)C4CC4)cc3)n2)n[nH]1 [Tozasertib] + Nc1ccn([C@@H]2O[C@H](CO)[C@@H](O)C2(F)F)c(=O)n1 [gemcitabine] (first compound 0.006 µM, partner dose 0.0004 µM) | 153 | 80.2 | 246 | 100 | 57.2 | 126 | 146 | 124 | 105 | 68.5 | 162 | 41.5 | 114 | 77.4
2 | Cc1cc(Nc2cc(N3CCN(C)CC3)nc(Sc3ccc(NC(=O)C4CC4)cc3)n2)n[nH]1 [Tozasertib] + Cc1ccc(Nc2nccc(N(C)c3ccc4c(C)n(C)nc4c3)n2)cc1S(N)(=O)=O [Pazopanib] (first compound 0.006 µM, partner dose 0.4 µM) | 90.6 | 68 | 151 | 92.9 | 52.4 | 59.6 | 82.7 | 177 | 179 | 81.5 | 90.1 | 22 | 101 | 68.9
3 | N#CC[C@H](C1CCCC1)n1cc(-c2ncnc3[nH]ccc23)cn1 [ruxolitinib] + CC(=O)O[C@@]12CO[C@@H]1C[C@H](O)[C@@]1(C)C(=O)[C@H](O)C3=C(C)[C@@H](OC(=O)[C@H](O)[C@@H](NC(=O)OC(C)(C)C)c4ccccc4)C[C@@](O)([C@@H](OC(=O)c4ccccc4)[C@H]21)C3(C)C [Docetaxel] (first compound 1 µM, partner dose 0.0001 µM) | 296 | 573 | 140 | 110 | 53.5 | 560 | 236 | 1110 | 292 | 196 | 152 | 64.5 | 169 | 47.8
4 | Cc1cc(Nc2cc(N3CCN(C)CC3)nc(Sc3ccc(NC(=O)C4CC4)cc3)n2)n[nH]1 [Tozasertib] + C=CCNC1=C2C[C@@H](C)C[C@H](OC)[C@H](O)[C@@H](C)/C=C(\C)[C@H](OC(N)=O)[C@@H](OC)/C=C\C=C(/C)C(=O)NC(=CC1=O)C2=O [Tanespimycin] (first compound 0.006 µM, partner dose 0.002 µM) | 150 | 98.6 | 86.5 | 272 | 88.3 | 158 | 89.9 | 87.8 | 51.8 | 53.3 | 101 | 31.5 | 124 | 65.6
5 | N#CC[C@H](C1CCCC1)n1cc(-c2ncnc3[nH]ccc23)cn1 [ruxolitinib] + Nc1ncn([C@H]2C[C@H](O)[C@@H](CO)O2)c(=O)n1 [decitabine] (first compound 1 µM, partner dose 0.1 µM) | 103 | 93.9 | 188 | 101 | 80.3 | 124 | 44.2 | 45.7 | 212 | 42.7 | 109 | 41.1 | 85.9 | 63.7
6 | Cc1cc(Nc2cc(N3CCN(C)CC3)nc(Sc3ccc(NC(=O)C4CC4)cc3)n2)n[nH]1 [Tozasertib] + CN1CCN(c2ccc3nc(-c4c(N)c5c(F)cccc5[nH]c4=O)[nH]c3c2)CC1 [Dovitinib] (first compound 0.006 µM, partner dose 0.1 µM) | 170 | 42.6 | 83.9 | 167 | 72.2 | 86.3 | 129 | 118 | 56.3 | 101 | 122 | 44.9 | 109 | 35.3
7 | CC[C@]1(O)C[C@H]2CN(CCc3c([nH]c4ccccc34)[C@@](C(=O)OC)(c3cc4c(cc3OC)N(C=O)[C@H]3[C@@](O)(C(=O)OC)[C@H](OC(C)=O)[C@]5(CC)C=CCN6CC[C@]43[C@@H]65)C2)C1 [vincristine] + O=C(/C=C/c1cccnc1)NCCCCC1CCN(C(=O)c2ccccc2)CC1 [FK866] (first compound 0.0001 µM, partner dose 0.01 µM) | 511 | 74.7 | 261 | 107 | 86.1 | 682 | 234 | 83.9 | 436 | 146 | 105 | 34.3 | 172 | 175
8 | O=C(/C=C/c1cccnc1)NCCCCC1CCN(C(=O)c2ccccc2)CC1 + CCCCCCCCc1ccc(CCC(N)(CO)CO)cc1 [fingolimod] (first compound 0.01 µM, partner dose 2 µM) | 280 | 103 | 238 | 54.8 | 106 | 894 | 80.3 | 74.4 | 106 | 392 | 202 | 90.1 | 127 | 79.3
9 | COc1cc([C@@H]2c3cc4c(cc3[C@@H](O[C@@H]3O[C@@H]5CO[C@@H](C)O[C@H]5[C@H](O)[C@H]3O)[C@H]3COC(=O)[C@H]23)OCO4)cc(OC)c1O [etoposide] + NC(=O)c1ccc(N(C(N)=O)c2c(F)cccc2F)nc1-c1ccc(F)cc1F [VX702] (first compound 0.02 µM, partner dose 0.4 µM) | 33.5 | 167 | 98.3 | 65.5 | 77 | 135 | 63.3 | 127 | 103 | 73.8 | 79.9 | 106 | 90.4 | 132
10 | COc1cc([C@@H]2c3cc4c(cc3[C@@H](O[C@@H]3O[C@@H]5CO[C@@H](C)O[C@H]5[C@H](O)[C@H]3O)[C@H]3COC(=O)[C@H]23)OCO4)cc(OC)c1O [etoposide] + CC(C)C[C@H](NC(=O)[C@H](Cc1ccccc1)NC(=O)c1cnccn1)B(O)O [Bortezomib] (first compound 0.02 µM, partner dose 0.001 µM) | 139 | 129 | 117 | 59.9 | 80.7 | 73 | 73.2 | 96.1 | 77.4 | 459 | 159 | 60.5 | 235 | 58.5
11 | Cc1cc(Nc2cc(N3CCN(C)CC3)nc(Sc3ccc(NC(=O)C4CC4)cc3)n2)n[nH]1 [Tozasertib] + Cn1c(=O)n(-c2ccc(C(C)(C)C#N)cc2)c2c3cc(-c4cnc5ccccc5c4)ccc3ncc21 [NVP-BEZ235] (first compound 0.006 µM, partner dose 0.004 µM) | 67.4 | 48.7 | 55.7 | 53.8 | 86.4 | 117 | 42.1 | 53 | 46.3 | 38.7 | 98.3 | 46.7 | 97.4 | 77.5
12 | Cc1ccc(Nc2nccc(N(C)c3ccc4c(C)n(C)nc4c3)n2)cc1S(N)(=O)=O [Pazopanib] + O=C(O)c1ccc2c(c1)nc(Nc1cccc(Cl)c1)c1ccncc12 [CX4945] (first compound 0.4 µM, partner dose 0.4 µM) | 143 | 117 | 138 | 64.5 | 65.9 | 59.4 | 71.8 | 49.5 | 125 | 80.6 | 82.1 | 38.9 | 78.6 | 65.2

Some entries already given, reduced to cleaved PARP positive nuclei fraction (UACC62) [%]:
Row,Compound,cleaved PARP positive nuclei fraction (UACC62) [%]
4,"Cc1cc(Nc2cc(N3CCN(C)CC3)nc(Sc3ccc(NC(=O)C4CC4)cc3)n2)n[nH]1 [Tozasertib] + C=CCNC1=C2C[C@@H](C)C[C@H](OC)[C@H](O)[C@@H](C)/C=C(\C)[C@H](OC(N)=O)[C@@H](OC)/C=C\C=C(/C)C(=O)NC(=CC1=O)C2=O [Tanespimycin] (first compound 0.006 µM, partner dose 0.002 µM)",87.8
5,"N#CC[C@H](C1CCCC1)n1cc(-c2ncnc3[nH]ccc23)cn1 [ruxolitinib] + Nc1ncn([C@H]2C[C@H](O)[C@@H](CO)O2)c(=O)n1 [decitabine] (first compound 1 µM, partner dose 0.1 µM)",45.7
